No constants are given. Whether binding was seen depends on the method and setting. Binding can be weak; no strength is given.
Biological target: OsDRB1-2 (rice (Oryza sativa))
Assay: two-hybrid; Matchmaker GAL4 two-hybrid system 3 (Clontech), Y2HGold yeast; OsDRB2 on GAL4 AD (pGADT7), DCL1-RBD or OsDRB1-2 on GAL4 BD (pGBKT7); growth on selective -Ade/-His/-Leu/-Trp plates, 28 °C

B1: OsDRB2 (DOUBLE-STRANDED RNA-BINDING2) (protein, UniProt Q9AV50 1-514)
chain: MYKNQLQELAQRSCFNLPAYTCLREGPDHAPRFKAAVNFNGEQFESPGFFTTLRQAEHAAAEVALAALARRGPSYSLAARILDETGVYKNLLQEVAQRVGAPLPSYTTERSGLGHLPVFTCTVELAGITFTGDPAKNKKQAEKNAASAAWSSLRQLVRQEASSSNEPESNDEQEQIRIARALLNYRLKEKMAMANNPHASPFPKKFPMQPERRTAFPQSSHSSYSKILPLFRPKSNSRSRPESPAASDAASQTPFRPTESPNPRSRFPAAEAAPYVPVGHFRMPCHSMAPPVTVRTSIPVFSAPPLPPPGARTQQLPPLMSHPPPIRMASPVRIRPAPPLFTPSAVQGPKPMMPVQIKDVQHQQIKETRSPVMPVQVKDAQNQLLKGSLSPVIPVQIKDVQSQPPKEALSPAIPVQIKDVQLQPRNEPVSIGKGVVPLPAIRPPVKVEAPAEVKEASQPVAGSSVVQCKADTSPDSLPKTQLKTANADNADAKDDHLPVDAEEVEDIIRHLELK
B1 was tested, and the binding was “binds”.

From PMC9570175
